Results are given in words; binding and its absence hold for the method and conditions named. In cells and extracts the contact can be indirect. A yes stands for co-enrichment or nearness to the bait. Other partners may have been found. Where a sequence is shown, tags or fusion partners need not be part of it.
T1: FLAG-tagged coronin A (Dictyostelium discoideum) (UniProt P27133)
T1 sequence: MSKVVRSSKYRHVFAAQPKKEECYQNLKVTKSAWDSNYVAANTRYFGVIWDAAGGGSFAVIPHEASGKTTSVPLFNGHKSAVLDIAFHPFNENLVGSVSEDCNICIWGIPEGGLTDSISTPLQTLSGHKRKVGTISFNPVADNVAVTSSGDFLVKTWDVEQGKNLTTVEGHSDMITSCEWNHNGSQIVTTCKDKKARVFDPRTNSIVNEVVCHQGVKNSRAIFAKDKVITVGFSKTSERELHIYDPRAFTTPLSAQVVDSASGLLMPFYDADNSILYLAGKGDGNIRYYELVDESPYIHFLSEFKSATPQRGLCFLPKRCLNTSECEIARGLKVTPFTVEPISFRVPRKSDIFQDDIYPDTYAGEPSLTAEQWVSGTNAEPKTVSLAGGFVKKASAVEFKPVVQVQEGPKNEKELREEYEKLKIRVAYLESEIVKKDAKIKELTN

B1: myosin-K heavy chain (protein, UniProt Q9XXV8 1-858)
chain: MFRLFSSGVDDLVLVSNPSNGEVTSQIGARFDRELIYTNIGEVLIAVNPYKALPITGPEFIKLYQNASGSDASPHIYALAERAYRRMVDENESQCVIISGESGAGKTVSAKLILQYVTSVSPNNSSGGGIGGSGGGNGGIPQYDGGSDDRPSPPMGRGMGMPGMVGRGGLPTRGGGPPSRGGGPPPTRGRGGPPPPIPQNRGAPPPVSNGGAPPPVARGPVAPPPTRGAPPTRGGGPANRGGRGGGPPPVSTSRGGGGYGGSSKTVDVEHIKKVILDSNPLMEAIGNAKTVRNDNSSRFGKYLEIQFDDNNAPVGGLISTFLLEKTRVTFQQKNERNFHIFYQMLGGLDQTTKSEWGLTQATDFYYLAQSKCTTVEDVDDGKDFHEVKAAMETVGISRDEQTEIFRILAAILHVGNIRFQGEAPASVIDETPLQWAASLLGCDPTFLCQSLNHRQIQSGSARHTQYQVPQNPDQSAGLRDALAKTLYERIFDFIVARVNKAMSFSGNCKVIGVLDIYGFEVFERNSFEQFCINYVNERLQQIFIDLTVRGEQREYHEEGMKWKDISFFDNKIVVDLIDGNKPPGIMRVLDDVCKTVHAVDSAAADIKFMEKLIHSIQSHPHLVISNTGSSADEFTIKHYAGEVSYSIEEFCFKNNDNLYASIVGCLQNSTYQFIVSLFPENIQDNKQAPTTSSFKIRQSSSYLVTRLSACTPHYIRCIKPNDKKQPMNFVSSRVEHQVKYLGILENIKVKRSGYAYRQLKDIFLNRFGKIMDVQPRNVQEFVEYITRTHKDINADEFEEGKTKIFVKNPETIFVMEDLLMQKIDPIGYKNRVQAYKENEKLAQMKQGKHSMKQKCLIQ
B2: fimbrin (protein, UniProt P54680 1-610)
chain: MTNFSESEISEFKASFNQFDENGDGQISALELQKILTKCGEKVTGVEVRDMIKEVDTDGNGSIDFKEFLQVMQKARQHSANASPAFASAVKKVGAVNTIGGYSGSTASGVQHSYSDEEKVAYIDWINNCLAKDVDLKSRLPIPEDGDKFFAACNDGLLLCKLINDAVPDTIDERVLNKKNLNAFRINENQVLCINSAKAIGCNVVNIGAGDLVEGRAHLIMGLTWQIIKIGLFARINLTNHPELYRLLHDGETIEDLLKLPVEEILLRWFNYHLAAAGSQRRVKNFSGDIKDSECYTILLKQIAPKDAGVETSALNISNLDQRAVKVLENADKLGCKKFLKPKDIVTGFQKLNLAFVANLFNTHPALEPVEDVVIIEETREEKTFRNWMNSLGVDPFVNNLYEGTYDGLILIQLFDKIYPGLVDHKKVNYPPYKAMGAEMKKIENCNYAIQLGKDCKYSLVGIDGKNVYDKNKTLTLSILWQLMRGHVISILTALSGSGKPIADADIVNWTNSKLSAAGKKQISGFKDSTISTGIPILDVIEAVRPGSVDPALVATSGSAEDNLLNAKLAVSTARKVGAVVFALPEDIVEVKPKMVLTLFASLWQVEMTK

Tests used:
[1] = molecular target: T1, FLAG-tagged coronin A (Dictyostelium discoideum); test: affinity purification with mass spectrometry; anti-FLAG M2 on lysates of corA- cells with FLAG-CorA against cells with untagged CorA; low salt TBS (25 mM NaCl), 1% Triton X-100, 4 °C; samples of all time points pooled; cutoff log2ratio > 1.5, q-value < 0.05
[2] = molecular target: T1, FLAG-tagged coronin A (Dictyostelium discoideum); test: affinity purification with mass spectrometry; anti-FLAG M2 on lysates of cells with FLAG-CorA or FLAG-CorAΔCC against untagged CorA; low salt TBS, 1% Triton X-100; cells harvested at 48 h

Row | Binder | binding [1] | binding [2]
1 | B1 | binds | –
2 | B2 | binds | binds

— publication PMC7073074
